{"sequences": {"note": "By UniProt entry, the sequences of proteins in these tests, tags left out.", "UniProt Q0JBA9, entry or part of it": "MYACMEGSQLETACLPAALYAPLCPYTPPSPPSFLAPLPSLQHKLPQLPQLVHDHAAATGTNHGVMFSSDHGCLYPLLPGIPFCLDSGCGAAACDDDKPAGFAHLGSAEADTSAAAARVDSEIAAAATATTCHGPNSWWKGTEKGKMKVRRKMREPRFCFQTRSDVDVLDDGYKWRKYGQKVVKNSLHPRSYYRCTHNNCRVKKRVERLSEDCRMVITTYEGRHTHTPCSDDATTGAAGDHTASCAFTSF"}, "source": "paper PMC7819943", "about": "“Rice protein-binding microarrays: a tool to detect cis-acting elements near promoter regions in rice”", "note": "The other results are listed elsewhere or left out."}
{"biological_target": "OsWRKY34 (Oryza sativa, UniProt Q0JBA9 1-250)", "experiment": "protein-binding microarray (RPBM); PBS, 2% BSA, 51.3 ng/ul salmon testes DNA, 50 uM zinc acetate, 200 nM TF, 25 C, 1 h; high values mean tight binding", "details": "protein: recombinant; tags: N-terminal polyhistidine and DsRed monomer fusion (pET32a); label: CyDye5-dUTP incorporated in the synthesized complementary strand; 3' TTTTT single-stranded linker to array surface; dsDNA, one strand shown", "procedure,_shortened": "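An Axon 4000B scanner gave the binding signal as per-feature fluorescence intensity in arbitrary units. This followed washing of a custom Agilent array that had been incubated for 1 h at 25 °C with 200 nM protein in PBS, 2% BSA, salmon testes DNA and 50 µM zinc acetate. The proteins were transcription factors fused at the N-terminus to polyhistidine and DsRed, expressed in E. coli BL21-CodonPlus and purified on Ni–NTA.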"}
{"sequence": "CACCCGGTAGCCTGTTGGGATGCTATACTACTACTACTATCGGAGTCACCTAGTGCAG", "binding signal": "10000 fluorescence intensity (a.u.)"}
{"sequence": "TGGCACGCACGCGGTTAGTATTTTCTTTTTTCCCGCACTTCGGAGTCACCTAGTGCAG", "binding signal": "11400 fluorescence intensity (a.u.)"}
{"sequence": "GCCAACGTTTGACTGTCCGTTTTATATGAAATTTTTTTATCGGAGTCACCTAGTGCAG", "binding signal": "9300 fluorescence intensity (a.u.)"}
{"sequence": "TAAGCATCCGCCGCTGACGTCAGCCGCCACCTCAGACCGCCGGAGTCACCTAGTGCAG", "binding signal": "8300 fluorescence intensity (a.u.)"}
{"sequence": "GCTCAGCTCGTTTTGCGTACATTCTCAATCGATTCTTTTCCGGAGTCACCTAGTGCAG", "binding signal": "15600 fluorescence intensity (a.u.)"}
{"sequence": "AATCTGTGTGTATATAGCTCATCATCCATGGCGGCTACCACGGAGTCACCTAGTGCAG", "binding signal": "9180 fluorescence intensity (a.u.)"}
{"sequence": "CTGTTTGTTCCCCATGGTTCCCAACTCCCCACCTTGTTTCCGGAGTCACCTAGTGCAG", "binding signal": "8180 fluorescence intensity (a.u.)"}
{"sequence": "ACTCCATCATCAGTACATACTACATAGTCATCAATCATCACGGAGTCACCTAGTGCAG", "binding signal": "11200 fluorescence intensity (a.u.)"}
{"sequence": "TCATGCCCTTGTTTTTTCATGTGATATATCGTTATTTGTCCGGAGTCACCTAGTGCAG", "binding signal": "15600 fluorescence intensity (a.u.)"}
{"sequence": "CCTTGTTTTTCTGCTCTGATGTACTTTTGCTGTAACACCTCGGAGTCACCTAGTGCAG", "binding signal": "8900 fluorescence intensity (a.u.)"}
{"sequence": "AACATCACCGTCATCAAGGCCACCGTCTCCGCCTCCGCCCCGGAGTCACCTAGTGCAG", "binding signal": "8280 fluorescence intensity (a.u.)"}
{"sequence": "TCCTAACCTGCTTAATTCATAATCTGTTCATTGTTCAAGCCGGAGTCACCTAGTGCAG", "binding signal": "10100 fluorescence intensity (a.u.)"}
{"sequence": "TCACCTCATCTCCCGATTCCTCCTCACATCGCCACTCTCCCGGAGTCACCTAGTGCAG", "binding signal": "11100 fluorescence intensity (a.u.)"}
{"sequence": "CTCTGCTGTTTCTTACGAACCTCCTCACACCAAGTTGAACCGGAGTCACCTAGTGCAG", "binding signal": "8550 fluorescence intensity (a.u.)"}
{"sequence": "GCGCCCTCCGACTCCGACGGCTTCTTGTTCTCGTTGACGCCGGAGTCACCTAGTGCAG", "binding signal": "8950 fluorescence intensity (a.u.)"}
{"sequence": "AATAGAGGGGAGGGCAAAGGCAAATACACGGGGAAATACACGGAGTCACCTAGTGCAG", "binding signal": "8420 fluorescence intensity (a.u.)"}
{"sequence": "ACACTAATTCTCTAGCACCAATGTTATGTTTGAGTTATAACGGAGTCACCTAGTGCAG", "binding signal": "8190 fluorescence intensity (a.u.)"}
{"sequence": "AAAATTGTGAGTGTTCCTTTCTTCGTCTCTCGCCTTGTACCGGAGTCACCTAGTGCAG", "binding signal": "12000 fluorescence intensity (a.u.)"}
{"sequence": "AGGGTTTCGTGTTTTCTTTTGCCTCGGTTGAGGAGTTCTTCGGAGTCACCTAGTGCAG", "binding signal": "10000 fluorescence intensity (a.u.)"}
{"sequence": "CCCATCGCCATCACCATCATATCATCCCCTCTCCTCCTCTCGGAGTCACCTAGTGCAG", "binding signal": "8860 fluorescence intensity (a.u.)"}
{"sequence": "CTGCGCACATATATCTTTATCTTTACTATTATATCTCTATCGGAGTCACCTAGTGCAG", "binding signal": "9190 fluorescence intensity (a.u.)"}
{"sequence": "AGTGACCTCAATTGATCATTCCCTCATCCTTTAGTCAAGCCGGAGTCACCTAGTGCAG", "binding signal": "8920 fluorescence intensity (a.u.)"}
{"sequence": "TCTGAAGTTGCGTTTCTTCGGATTGTATAGCGCCCGTCTCCGGAGTCACCTAGTGCAG", "binding signal": "8650 fluorescence intensity (a.u.)"}
{"sequence": "TTGGTTAGACCTCTGTTTTTCTCCCACATAATCCCTTTATCGGAGTCACCTAGTGCAG", "binding signal": "9180 fluorescence intensity (a.u.)"}
{"sequence": "GCATTTTGGAGTCCGTGCTGCAGCTGGCTATATATCTGTACGGAGTCACCTAGTGCAG", "binding signal": "8560 fluorescence intensity (a.u.)"}
{"sequence": "CCCCGCGCTTTTATTACTAGTAGTACTTCTCCTAGCGGCACGGAGTCACCTAGTGCAG", "binding signal": "9010 fluorescence intensity (a.u.)"}
{"sequence": "TCACTGCCCGTCTAGCCATGCTATGCTTGGGCTGCTACCCCGGAGTCACCTAGTGCAG", "binding signal": "8060 fluorescence intensity (a.u.)"}
{"sequence": "TCAAGTTGTCTGACCATATCATATATCATCATGCATGCACCGGAGTCACCTAGTGCAG", "binding signal": "9480 fluorescence intensity (a.u.)"}
{"sequence": "CGCGGCGCCACTATAAATTGGCGCGCCAATTCCTTTCCTTCGGAGTCACCTAGTGCAG", "binding signal": "8460 fluorescence intensity (a.u.)"}
{"sequence": "GTGTGTGGATTAGTTGGAAGGATCAGTGCAATTATTGACTCGGAGTCACCTAGTGCAG", "binding signal": "9670 fluorescence intensity (a.u.)"}
{"sequence": "GTCTTTTCTATAATATACCGGTAAATTTATTAATTATTTTCGGAGTCACCTAGTGCAG", "binding signal": "8220 fluorescence intensity (a.u.)"}
{"sequence": "TGACTTGGAAGTACTTTAGCATTGTCTTATCTCTCTCTATCGGAGTCACCTAGTGCAG", "binding signal": "9050 fluorescence intensity (a.u.)"}
{"sequence": "TTTTCATCCACTAGCTCTCTACAGCTTATTATATACTTCCCGGAGTCACCTAGTGCAG", "binding signal": "9030 fluorescence intensity (a.u.)"}
{"sequence": "TCTCTTCATCTTCTGATCTGTGTTGGTGTTGCAAAAGAGACGGAGTCACCTAGTGCAG", "binding signal": "10400 fluorescence intensity (a.u.)"}
{"sequence": "ATCCATCTTCTTCTTCTTTCTTTCTTTTCTTCCTCTTCTTCGGAGTCACCTAGTGCAG", "binding signal": "10400 fluorescence intensity (a.u.)"}
{"sequence": "GCCAATCACTGTACTTCTATTACAATGCACATGCATGCGCCGGAGTCACCTAGTGCAG", "binding signal": "8310 fluorescence intensity (a.u.)"}
{"sequence": "ACTATTCACGTTTAACATTTGACCGTTTATCTTATTTGAACGGAGTCACCTAGTGCAG", "binding signal": "9200 fluorescence intensity (a.u.)"}
{"sequence": "GTTTTGATTATTTGACATCCTAGTCCACTTTCATATACTTCGGAGTCACCTAGTGCAG", "binding signal": "9910 fluorescence intensity (a.u.)"}
{"sequence": "AGTGCGTTTCGTATCCCCTTTTCTCCAGTGACCTGCGGTACGGAGTCACCTAGTGCAG", "binding signal": "8960 fluorescence intensity (a.u.)"}
{"sequence": "AGCAGAATCTAGCATGCACGTTTTTTTTATTTTCCTTTTACGGAGTCACCTAGTGCAG", "binding signal": "8580 fluorescence intensity (a.u.)"}
{"sequence": "GCTTCTATTATTTTGGACCTTCTGAAATTTCAGTCTGTCTCGGAGTCACCTAGTGCAG", "binding signal": "11700 fluorescence intensity (a.u.)"}
{"sequence": "CCACCAGTCCACCACCCGCTTCCCCTATATATCGTATCCCCGGAGTCACCTAGTGCAG", "binding signal": "9380 fluorescence intensity (a.u.)"}
